We go through four molecules from publication PMC6534668.

Chains of the proteins cited; added tags and fusions are not shown.
UniProt P24610: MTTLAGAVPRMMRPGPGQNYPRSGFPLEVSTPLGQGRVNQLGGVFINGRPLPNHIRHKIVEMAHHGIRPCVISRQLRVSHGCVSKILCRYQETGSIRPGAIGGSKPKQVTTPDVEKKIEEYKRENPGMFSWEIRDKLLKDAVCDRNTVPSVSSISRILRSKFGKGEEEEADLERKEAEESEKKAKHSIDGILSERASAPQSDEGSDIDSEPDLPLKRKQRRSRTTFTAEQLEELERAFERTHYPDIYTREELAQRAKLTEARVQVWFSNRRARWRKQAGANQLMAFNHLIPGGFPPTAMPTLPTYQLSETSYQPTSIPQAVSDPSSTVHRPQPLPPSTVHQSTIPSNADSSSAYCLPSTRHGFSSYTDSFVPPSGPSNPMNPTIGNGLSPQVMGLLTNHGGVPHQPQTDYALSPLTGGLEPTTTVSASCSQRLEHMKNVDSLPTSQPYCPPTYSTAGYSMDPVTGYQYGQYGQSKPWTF
UniProt Q99L02: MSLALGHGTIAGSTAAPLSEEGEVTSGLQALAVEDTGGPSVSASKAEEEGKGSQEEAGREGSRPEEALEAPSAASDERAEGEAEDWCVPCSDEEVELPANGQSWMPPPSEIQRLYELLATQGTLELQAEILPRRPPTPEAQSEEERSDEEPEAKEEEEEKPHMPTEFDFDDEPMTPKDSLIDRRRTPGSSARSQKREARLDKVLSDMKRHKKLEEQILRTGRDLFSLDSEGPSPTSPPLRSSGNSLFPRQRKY
UniProt Q9CWW7: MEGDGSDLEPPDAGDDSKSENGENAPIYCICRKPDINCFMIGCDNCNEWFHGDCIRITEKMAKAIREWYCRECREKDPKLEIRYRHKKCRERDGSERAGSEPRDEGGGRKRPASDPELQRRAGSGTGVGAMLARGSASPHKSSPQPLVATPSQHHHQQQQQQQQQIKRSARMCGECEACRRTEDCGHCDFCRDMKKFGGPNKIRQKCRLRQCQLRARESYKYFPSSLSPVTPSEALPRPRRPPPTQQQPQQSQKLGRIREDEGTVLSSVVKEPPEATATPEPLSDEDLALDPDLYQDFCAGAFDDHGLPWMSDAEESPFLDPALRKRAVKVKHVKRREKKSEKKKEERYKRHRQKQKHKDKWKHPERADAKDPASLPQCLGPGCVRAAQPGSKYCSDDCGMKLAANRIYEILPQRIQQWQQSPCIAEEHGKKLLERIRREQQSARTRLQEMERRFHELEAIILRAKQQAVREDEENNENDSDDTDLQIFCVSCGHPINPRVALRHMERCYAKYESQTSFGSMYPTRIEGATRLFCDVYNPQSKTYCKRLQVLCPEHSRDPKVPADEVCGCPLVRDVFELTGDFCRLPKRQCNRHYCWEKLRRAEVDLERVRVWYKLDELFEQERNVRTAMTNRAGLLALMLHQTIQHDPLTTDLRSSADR

Read-outs that look alike come from different tables or passages of the source. Results are given in words; binding and its absence hold for the method and conditions named. Binding seen in cells or lysates may run through a third protein. Here binding means that the protein was enriched with, or labelled near, the bait; the list need not be complete. No binding means not detected with the bait.

In assay [1] the target is PAX3HaFlag (UniProt P24610). Kind of assay: affinity purification with mass spectrometry; tandem affinity purification of PAX3HaFlag (anti-FLAG M2 then anti-HA magnetic beads, peptide elution) from Benzonase-treated nuclear extracts of 1-day induced EBs; washes with 100 and 200 mM NaCl, 0.1% NP-40; control: IP from the untagged Pax3 line; two purifications.
Assay [2] deals with PAX3HaFlag (UniProt P24610). The description is as above. The source holds these as a separate data set.

As to PAGR1A (from UniProt Q99L02 1-253), the binding result with PAX3HaFlag [1] is recorded as “no binding”.

Turning to CXXC1 (from UniProt Q9CWW7 1-660), the binding result in the assay with PAX3HaFlag [1] is reported as “no binding”.

B1: CTCF (protein, UniProt Q61164 1-736)
chain: MEGEAVEAIVEESETFIKGKERKTYQRRREGGQEEDACHLPQNQTDGGEVVQDVNSSVQMVMMEQLDPTLLQMKTEVMEGTVAPEAEAAVDDTQIITLQVVNMEEQPINIGELQLVQVPVPVTVPVATTSVEELQGAYENEVSKEGLAESEPMICHTLPLPEGFQVVKVGANGEVETLEQGELPPQEDSSWQKDPDYQPPAKKTKKTKKSKLRYTEEGKDVDVSVYDFEEEQQEGLLSEVNAEKVVGNMKPPKPTKIKKKGVKKTFQCELCSYTCPRRSNLDRHMKSHTDERPHKCHLCGRAFRTVTLLRNHLNTHTGTRPHKCPDCDMAFVTSGELVRHRRYKHTHEKPFKCSMCDYASVEVSKLKRHIRSHTGERPFQCSLCSYASRDTYKLKRHMRTHSGEKPYECYICHARFTQSGTMKMHILQKHTENVAKFHCPHCDTVIARKSDLGVHLRKQHSYIEQGKKCRYCDAVFHERYALIQHQKSHKNEKRFKCDQCDYACRQERHMIMHKRTHTGEKPYACSHCDKTFRQKQLLDMHFKRYHDPNFVPAAFVCSKCGKTFTRRNTMARHADNCAGPDGVEGENGGETKKSKRGRKRKMRSKKEDSSDSEENAEPDLDDNEEEEEPAVEIEPEPEPQPQPPPPPQPVAPAPPPAKKRRGRPPGRTNQPKQNQPTAIIQVEDQNTGAIENIIVEVKKEPDAEPAEGEEEEAQAATTDAPNGDLTPEMILSMMDR
For B1, the binding entry with PAX3HaFlag [2] is on record as “no binding”.

B2: LIM-domain binding protein 1 (LDB1) (protein, UniProt P70662 1-411)
chain: MSVGCACPGCSSKSFKLYSPKEPPNGNAFPPFHPGTMLDRDVGPTPMYPPTYLEPGIGRHTPYGNQTDYRIFELNKRLQNWTEECDNLWWDAFTTEFFEDDAMLTITFCLEDGPKRYTIGRTLIPRYFRSIFEGGATELYYVLKHPKEAFHSNFVSLDCDQGSMVTQHGKPMFTQVCVEGRLYLEFMFDDMMRIKTWHFSIRQHRELIPRSILAMHAQDPQMLDQLSKNITRCGLSNSTLNYLRLCVILEPMQELMSRHKTYSLSPRDCLKTCLFQKWQRMVAPPAEPARQQPSKRRKRKMSGGSTMSSGGGNTNNSNSKKKSPASTFALSSQVPDVMVVGEPTLMGGEFGDEDERLITRLENTQFDAANGIDDEDSFNNSPALGANSPWNSKPPSSQESKSENPTSQASQ
As to B2, the binding entry with PAX3HaFlag [2] is “binds”.
